# Source: the supplement of paper PMC10663445
# Counter-ions that a name gives are not always drawn. Some of the results follow. Repeats are few or missing, and single values can be far off.
# System: hsa-miR-132-3p
# Test: miR-132-3p level in NGN2-iNs after compound treatment (TMM-normalised, ComBat batch-corrected) (batch-corrected normalised expression (arbitrary units)); higher = higher miR-132-3p expression
# Settings: 10 µM; 24 h; human iPSC-derived NGN2 neurons (BR43)
row,SMILES,miR-132-3p level in NGN2-iNs
1,CNC(=O)c1ccc(C)c(-n2c(C)cc(OCc3ccc(F)cc3F)c(Br)c2=O)c1,-1.03
2,CN(C)CC/C=C1/c2ccccc2COc2ccc(CC(=O)O)cc21 [Olopatadine HCl],0.486
3,c1ccc(CN(CC2=NCCN2)c2ccccc2)cc1 [Antazoline HCl],-0.309
4,CN(C)Cc1ccc(S(=O)(=O)n2ccc(/C=C/C(=O)NO)c2)cc1 [Resminostat],-0.876
5,Nc1ncnc2n[nH]c(Nc3ccc(F)cc3)c12,0.0235
6,CCn1cc(NC(=S)Nc2cc(Cl)ccc2OC)c(C(N)=O)n1,-0.773
7,CN(C)CC(c1ccc(O)cc1)C1(O)CCCCC1 (stereo not given) [Desvenlafaxine],-0.225
8,CN(C)CC(c1ccc(O)cc1)C1(O)CCCCC1 (stereo not given) [Desvenlafaxine Succinate],-0.422
9,COc1ccc(S(=O)(=O)N(CCO)c2ccccc2CN(C)C/C=C/c2ccc(Cl)cc2)cc1 [KN-93 Phosphate],-0.39
10,O=C(Nc1ccccc1Br)N[C@@H]1CCN(c2ccc(C(F)(F)F)cn2)C1,-1.08
11,O=C(c1ccccc1)c1ccc2n1CCC2C(=O)O (stereo not given) [Ketorolac],0.811
12,CCN(CC)CCCC(C)Nc1nc(C)cc(Nc2ccc3nc(C)cc(N)c3c2)n1 (stereo not given),-0.767
13,C#CCC(Cc1cnc2nc(N)nc(N)c2n1)c1ccc(C(=O)N[C@@H](CCC(=O)O)C(=O)O)cc1 (stereo not given in full) [Pralatrexate],0.493
14,CC(C)(O)c1ccccc1CC[C@@H](SCC1(CC(=O)O)CC1)c1cccc(/C=C/c2ccc3ccc(Cl)cc3n2)c1 [Montelukast Sodium],-0.0685
15,O=C1NC(=O)C(=Cc2ccc(-c3ccc(F)cc3)o2)S1 (stereo in doubt),0.805
16,OC[C@@H](O)[C@@H](O)[C@@H](O)CO [Ribitol],1.11
17,O=C(Nc1ccccc1)Nc1ccc(-c2ccc(C(=O)[C@@H]3CCC[C@H]3C(=O)O)cc2)cc1,-0.843
18,COC(=O)Nc1nc2cc([S+]([O-])c3ccccc3)ccc2[nH]1 (stereo not given) [Oxfendazole],-0.0299
19,COc1ccccc1OCC(O)COC(N)=O (stereo not given) [Methocarbamol],0.266
20,CCc1c(Cl)c(O)c(Cl)c(O)c1C(=O)O[C@H]1[C@H](O)[C@H](OC)[C@H](OC/C2=C\C=C\C[C@H](O)/C(C)=C/[C@H](CC)[C@@H](O[C@@H]3OC(C)(C)[C@@H](OC(=O)C(C)C)[C@H](O)[C@@H]3O)/C(C)=C/C(C)=C/C[C@@H]([C@@H](C)O)OC2=O)O[C@@H]1C [Fidaxomicin],-1.25

# Given tab-delimited: part of the list above
row	SMILES	miR-132-3p level in NGN2-iNs
5	Nc1ncnc2n[nH]c(Nc3ccc(F)cc3)c12	0.0235
6	CCn1cc(NC(=S)Nc2cc(Cl)ccc2OC)c(C(N)=O)n1	-0.773

# (cont.)

row,SMILES,miR-132-3p level in NGN2-iNs
1,Clc1ccc(Nc2nnc(Cc3ccncc3)c3ccccc23)cc1 [Vatalanib (PTK787) 2HCl],0.0502
2,Cc1cc(O)c2c(c1)C(=O)c1cc(O)cc(O)c1C2=O [Emodin],-1.05
3,O=C1NC(=O)/C(=C/c2cccc(C(F)(F)F)c2)S1,-0.686
4,CCOC(=O)[C@H](CCc1ccccc1)N[C@@H](C)C(=O)N1Cc2cc(OC)c(OC)cc2C[C@H]1C(=O)O [Moexipril HCl],0.431
5,O=c1[nH]cnc2[nH]ncc12 [Allopurinol Sodium],0.379
6,C[N+](C)(C)CCO.[Cl-] [Choline Chloride],0.942
7,C[C@H]1COc2c(N3CCN(C)CC3)c(F)cc3c(=O)c(C(=O)O)cn1c23 [Levofloxacin],-0.711
8,NC(CO)C(=O)NNCc1ccc(O)c(O)c1O (stereo not given) [Benserazide HCl],1.67
9,CCCC(=O)OCOC(=O)C1=C(C)NC(C)=C(C(=O)OC)C1c1cccc(Cl)c1Cl (stereo not given) [Clevidipine Butyrate],-0.901
10,CN1CCN(c2ccc(OC(F)(F)F)c(Nc3ncc4c(n3)-c3c(c(C(N)=O)nn3CCO)CC4)c2)CC1,0.838
11,O=C(O)CSCC(=O)NC1CCSC1=O (stereo not given) [Erdosteine],-0.964
12,Cc1cc2c(F)c(Oc3ncnn4cc(OC[C@@H](C)O)c(C)c34)ccc2[nH]1,-2.85
13,COc1cc(/C=C/C(=O)CC(=O)/C=C/c2ccc(O)c(OC)c2)ccc1O [Curcumin],0.897
14,CC(C)CN(C[C@@H](O)[C@H](Cc1ccccc1)NC(=O)O[C@H]1CO[C@H]2OCC[C@H]21)S(=O)(=O)c1ccc(N)cc1 [Darunavir Ethanolate],0.429
15,CC(C)(O)C1CCC(C)(C2C(O)CC3(C)C4CC(OC5OC(CO)C(O)C(O)C5O)C5C(C)(C)C(OC6OCC(O)C(O)C6O)CCC56CC46CCC23C)O1 (stereo not given) [Astragaloside A],1.68
16,OCCN1C[C@H](O)[C@@H](O)[C@H](O)[C@H]1CO [Miglitol],-0.642
17,CC(=O)OCC[N+](C)(C)C [Acetylcholine Chloride],-0.185
18,Cn1cnc([N+](=O)[O-])c1Sc1ncnc2[nH]cnc12 [Azathioprine],0.653
19,CC(C)C(=O)Nc1ccc([N+](=O)[O-])c(C(F)(F)F)c1 [Flutamide],-1.11
20,O=C(O)CCCC[C@@H]1SC[C@@H]2NC(=O)N[C@@H]21 [Biotin (Vitamin B7)],0.169
